Test results published in patent US4937232A, “Inhibition of protein kinase C by long-chain bases” (priority 1988, dated 1990).

Test system: HL-60 cells
Assay: Free long-chain base content of HL-60 cells by HPLC
Parameters: species or system human

Q: For `CCCCCCCCCCCCC/C=C/[C@@H](O)[C@@H](N)CO` [sphingosine], which “endogenous level of free long-chain base in HL-60 cells” value is on record?
A: 12.3±1.2 pmoles/10^6 cells

Q: What about the “share of the total free long-chain base detected” value of the same compound?
A: > 80%
